# Assay results published in PubChem BioAssay AID493014 (National Center for Advancing Translational Sciences (NCATS), 2011).
# The other results are listed elsewhere or left out. Further columns of the screen follow, without active or inactive calls. Compounds called inactive in the main read-out are mostly missing here. Potencies come from curve fits of mixed quality, noted in brackets.
# Assay: qHTS Assay to Find Inhibitors of Chronic Active B-Cell Receptor Signaling
# Details: ABC-DLBCL IkBa-CBG/CBR reporter, luminescence ratio (green luciferase fused to IkBa over red control in TMD8 lymphoma cells), 4 h
# Summary of the method: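 TMD8 ABC-DLBCL cells carrying doxycycline-inducible green luciferase fused to IkappaBalpha plus unfused red luciferase were exposed to compounds (up to 46 uM) for 4 hrs at 37C. Activity came from the overlap-corrected green/red luminescence ratio.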
# [1] = measured here: CBR red luminescence, cell number
# [2] = measured here: IkBa-CBG green luminescence
Compound,AC50 [1],AC50 [2]
O=C(COC(=O)Cc1n[nH]c(=O)c2ccccc12)Nc1ccc(Cl)cn1,"2.06 µM [falling, partial curve, poor fit]",
COC(=O)c1c(NC(=O)/C=C/C(=O)O)sc(Cc2ccccc2)c1C,"14.6 µM [falling, partial curve, poor fit]",
CC(C)Sc1nc(N2CCOCC2)c2c(c1C#N)CC(C)(C)SC2,"0.562 µM [rising, full curve, poor fit]",
COc1ccc([N+](=O)[O-])cc1C1NN=C(c2cccc3ccccc23)S1 (stereo not drawn),"10.3 µM [rising, partial curve]",
O=C(NCCc1ccccc1)C1CC1,"0.794 µM [rising, full curve, poor fit]",
CCOC(=O)c1c(C)n(C)c2ccc(OC)c(NC(=O)CN3CCC4(CC3)OCCO4)c12,"11.2 µM [rising, partial curve]","11.2 µM [falling, partial curve]"
Cc1noc(C)c1C(=O)OCC(=O)N(C)C1CCS(=O)(=O)C1 (stereo not drawn),"8.91 µM [falling, partial curve, poor fit]",
Cc1oc(-c2cccc(Br)c2)[n+]([O-])c1C,"20 µM [falling, single point]",
COc1ccc(N/N=C(/C)c2cnnc(-c3ccccc3)n2)cc1,"25.9 µM [rising, single point]",
N#CCc1ccc(NC(=O)Nc2cccc3ccccc23)cc1,"20 µM [falling, partial curve, poor fit]",
C/C(CC(=O)Nc1ccc(Cl)c(C(F)(F)F)c1)=N\NC(=O)c1cccc(O)c1,"3.26 µM [falling, full curve]",
Cc1cccc(-n2ncc3c(N)ncnc32)c1,"20 µM [falling, partial curve]",
CCOc1ccc(S(=O)(=O)N2CCCCC2)cc1NC(=O)C1CSC2(C)CCC(=O)N12 (stereo not drawn),"4.11 µM [rising, partial curve]",
COc1cccc(Nc2nnc(SCC(=O)N3CCOCC3)s2)c1,"8.91 µM [falling, partial curve]",
COc1cc(/C=N/NC(=O)Nc2ccccc2)ccc1OCCOc1ccccc1C,"4.61 µM [rising, partial curve]",
CN(C)S(=O)(=O)c1ccc(C(=O)OCC(=O)Nc2cccnc2Cl)cc1,"20 µM [rising, partial curve, poor fit]",
Cc1ccc(SC(c2ccc(C)cc2)C(Cn2cncn2)C(=O)c2ccccc2)cc1 (stereo not drawn),"3.66 µM [falling, single point]",
C=CCC[C@H](Cc1ccc(F)cc1)C(=O)OC[C@H](Cc1c[nH]c2ccccc12)NC(=O)[C@@H](CC=C)CC(=O)N(CCO)Cc1ccccc1,"11.6 µM [falling, partial curve, poor fit]",
CC1(C)S[C@@H]2[C@H](NC(=O)C(C(=O)O)c3ccccc3)C(=O)N2[C@H]1C(=O)O (stereo partly drawn),"0.00517 µM [rising, full curve, poor fit]",
CCOC(=O)c1sc(NC(=O)c2ccc(C)s2)cc1C,"0.141 µM [falling, full curve, poor fit]",
CCn1c(SCC(=O)Nc2nc(-c3ccc(C)cc3)cs2)nnc1-c1ccccc1,"6.51 µM [rising, single point]",

# Arranged by length of the SMILES (descending): some entries from above
Compound,AC50 [1],AC50 [2]
CN(C)S(=O)(=O)c1ccc(C(=O)OCC(=O)Nc2cccnc2Cl)cc1,"20 µM [rising, partial curve, poor fit]",
CC(C)Sc1nc(N2CCOCC2)c2c(c1C#N)CC(C)(C)SC2,"0.562 µM [rising, full curve, poor fit]",
Cc1oc(-c2cccc(Br)c2)[n+]([O-])c1C,"20 µM [falling, single point]",

# Next part:

Compound,AC50 [1],AC50 [2]
O=C(CN1C(=O)NC2(CCCC2)C1=O)Nc1cccc(C(F)(F)F)c1,"15.8 µM [rising, single point]",
CC(=O)Oc1ccc(-c2nc(-c3cccnc3)no2)cc1,"4.11 µM [rising, single point]","7.31 µM [falling, partial curve, poor fit]"
COc1cccc2sc(N3CCN(c4nc5ccccc5s4)CC3)nc12,"7.94 µM [rising, partial curve, poor fit]",
Cc1ccc(C(C)C)c(OCC(=O)Nn2c(C)nc3ccccc3c2=O)c1,"20.6 µM [falling, single point]","32.6 µM [rising, partial curve, poor fit]"
c1ccc(CN2CCC(Nc3nc(-c4ccccc4)nc4ccccc34)CC2)cc1,"25.9 µM [falling, partial curve]",
COc1cccc(/C=C2\Oc3cc(OCC(=O)N4CCCCC4)ccc3C2=O)c1OC,"25.1 µM [falling, single point]",
O=C(CCSc1ccccc1)Nc1ccccc1Br,"22.4 µM [falling, partial curve, poor fit]",
COc1ccc(NC(=O)CSC2=Nc3ccccc3C3=NC(CC(=O)NCc4ccco4)C(=O)N23)cc1 (stereo not drawn),"28.2 µM [falling, partial curve, poor fit]",
CC(=O)NCc1cc(Cl)c2cccnc2c1O,"29.1 µM [falling, single point]",
CCN1C(=O)CC(N2CCN(c3ccc(C(=O)c4ccncc4)cc3)CC2)C1=O (stereo not drawn),"18.4 µM [falling, partial curve, poor fit]",
CCNC(=S)NNC(=O)CSc1nc2ccccc2n1C,"2.51 µM [rising, full curve, poor fit]",
CC1CC(C)(C)NC(=S)N1CC(=O)NCc1ccc(Cl)cc1 (stereo not drawn),"25.9 µM [falling, single point]",
O=C(CN1c2cccc3cccc(c23)S1(=O)=O)N1CCN(c2ccccc2)CC1,"25.9 µM [rising, single point]",
CCCCNc1c(-c2ccc(-c3cccc(Cl)c3)cc2)nc2ccc(Cl)cn12,"7.31 µM [falling, single point]",
CCOC(=O)N1CCN(C(=O)c2cc3c(s2)-c2ccccc2OC3)CC1,"11.6 µM [falling, single point]",
O=C(O)CCCC(=O)OCCCCc1cccs1,"11.2 µM [falling, single point]",
CCNC(=O)NC(=O)COC(=O)CCCSc1nc2ccccc2s1,"5.8 µM [falling, partial curve, poor fit]","0.092 µM [rising, full curve, poor fit]"
Brc1ccc(CSc2nnc(-c3ccccn3)n2Cc2ccco2)cc1,"12.6 µM [rising, partial curve]",
Cc1cc(OCC(=O)N2CCOCC2)cc2oc(=O)c3ccccc3c12,"23.1 µM [rising, single point]",
CCOC(=O)c1ccccc1NC(=O)COC(=O)c1cc([N+](=O)[O-])ccc1N1CCOCC1,"16.4 µM [falling, single point]",
COc1cc(NC(=O)CN(c2ccc(C)cc2)S(=O)(=O)c2c(C)nn(C)c2C)cc(OC)c1,"1.58 µM [falling, full curve, poor fit]",

Compound,AC50 [1],AC50 [2]
COCCNc1oc(-c2ccccc2Cl)nc1C#N,"29.1 µM [falling, single point]",
CCc1[nH]nc2c1C(C(C)C)C(C#N)=C(N)O2 (stereo not drawn),"15.8 µM [falling, partial curve, poor fit]",
CCC(C)(C)n1nnnc1CN1CCSCC1,"9.2 µM [rising, partial curve, poor fit]",
COc1ccc(-c2nc3ccccc3n2CCC(C)C)cc1OC,"18.4 µM [falling, single point]",
COc1ccccc1-c1ccc(C(=O)O)o1,"9.2 µM [falling, partial curve]",
C=CCNC(=O)c1ccc(CSc2nc3ccccc3s2)cc1,"35.5 µM [falling, single point]",
COC(=O)c1sccc1NC(=O)/C=C/c1ccc(Cl)cc1,"0.326 µM [falling, full curve]",
COC(=O)CN(n1cnnc1)S(=O)(=O)c1ccccc1,"35.5 µM [rising, single point]","35.5 µM [falling, partial curve, poor fit]"
C#CCN1C(=O)C(O)(CC(=O)/C=C/c2ccco2)c2ccccc21 (stereo not drawn),"8.91 µM [falling, partial curve]",
CCn1c2c(c3cc(OCC(C)C)ccc31)CCCC2=O,"20.6 µM [rising, partial curve, poor fit]",
CCOC(=O)N1CCN(S(=O)(=O)c2cccc3cccnc23)CC1,"7.94 µM [rising, partial curve, poor fit]",
COc1cccc(CNc2ccc3[nH]c(=O)[nH]c3c2)c1OCc1ccccc1Cl,"22.4 µM [falling, single point]",
CC(=O)Nc1nnc(-c2ccc(Cl)s2)o1,"3.26 µM [rising, full curve, poor fit]",
COc1ccc(CNc2nc3ccccc3n2Cc2ccc(C)cc2)cc1OC,"29.1 µM [falling, single point]",
CSc1ccccc1NC(=O)COC(=O)CSc1ccc(C)cc1,"29.1 µM [falling, single point]",
CCCOc1ccc(C(=O)NC(=S)N2CCN(c3cc4c(cc3F)c(=O)c(C(=O)O)cn4CC)CC2)cc1,"0.447 µM [rising, full curve, poor fit]",
CCC(=O)NCC(=O)OCC(=O)c1ccccc1,"29.1 µM [rising, single point]",
COc1ccccc1C(=O)NC(CCSC)C(=O)OC(C)C(N)=O (stereo not drawn),"31.6 µM [rising, single point]",
CC1CCN(C(=O)CN(C2CCCCC2)S(C)(=O)=O)CC1,"6.51 µM [rising, single point]",
COc1ccc(/C(C)=N/N2C(=O)c3ccccc3NC2c2ccc(O)c(OC)c2)cc1 (stereo not drawn),"7.94 µM [falling, partial curve]",
CC(C)(C)C(=O)Nc1ccc(S(=O)(=O)N2CCC(c3nc4ccccc4[nH]3)CC2)cc1,,"3.26 µM [falling, partial curve, poor fit]"
